# Data published in ChEMBL document CHEMBL4296182, “CO-ADD screening of NIH NCI Diversity Set V”.
# The other results are listed elsewhere or left out. Entries with a potency or affinity are not part of this list.
# Tested on: Pseudomonas aeruginosa
# Details: Concentration 20 uM; ASSAY_TEST Inhibition of Bacterial Growth; detection method Absorption (OD600); MEDIA CAMHB; plate type 384well; NBS; CORNING #3640; time 18 hr
row,Compound,Inhibition
1,COc1cc(/C=N/N=c2\[nH]c3c(=O)n(C)c(=O)n(C)c3[nH]2)ccc1O,25.45%
2,O=c1c2ccccc2ncn1-c1ccc(Cl)cc1,21.07%
3,O=C(O)/C(=C/c1ccccc1)c1ccccc1,16.48%
4,O=C(Nc1ccc(Oc2ccc(NC(=O)Nc3ccc([N+](=O)[O-])cc3)cc2)cc1)Nc1ccc([N+](=O)[O-])cc1,11.51%
5,COc1cnc(SC)nc1Nc1ccc(C#N)cc1,13.16%
6,CCOC(=O)N1C/C(=C\c2ccccc2)C(=O)/C(=C/c2ccccc2)C1,20.83%
7,CC1(C)CC2(C)OC2C2(C1)N=N/C(=N/c1ccccc1)O2 (configuration not stated),19.19%
8,CC(=O)[C@H]1CC[C@H]2[C@@H]3CCC4=CC(=O)C=C[C@]4(C)[C@H]3C(=O)C[C@]12C,5.7%
9,Cc1ccc(NC(=O)N2CCCCC2)cc1NC(=O)N1CCCCC1,20.13%
10,Oc1ccc(Nc2ccnc3cc(Cl)ccc23)cc1,1.99%
11,O=C(Oc1cccnc1O)c1cccc(Cl)c1,2.75%
12,C=CCNC(=S)NCC=C,10.46%
13,O=C1C2C3C=CC(CC3)C2S(=O)(=O)C2C3C=CC(CC3)C12 (configuration not stated),23.93%
14,COCCn1c2nc(=O)n(-c3ccccc3)c(=O)c-2nc2ccccc21,15.01%
15,CN(C)S(=O)(=O)Nc1ccccn1,4.84%
16,N#CC1=C(Nc2ccccc2Cl)SC(c2ccccc2O)NC1=O (configuration not stated),14.86%
17,CN(C)S(=O)(=O)Nc1cccc(Br)c1,1.49%
18,CC1CCC(C(C)C)C(NC(=O)c2ccncc2)C1 (configuration not stated),14.79%
19,Cc1ccc(NC(=O)Nc2c(Cl)cccc2Cl)cn1,-9.32%
20,Cc1cccc(N=C(S)Nc2cccc(C)n2)n1,3.23%
21,Cc1cccc(Nc2sc(C(=O)c3cc4cc(Cl)ccc4o3)c(N)c2C#N)c1,11.06%
22,Cn1c(=O)c2c(nc(Cc3ccccc3)n2C)n(C)c1=O,-2.75%
23,O=C1c2ccccc2C(=O)c2[nH]cnc21,-13.67%
24,COC(=O)c1c(-c2ccccc2)[nH]c(-c2nccc3ccccc23)c1C(=O)OC,20.93%

# Random excerpt: 2 compounds from above, in no set order.
row,Compound,Inhibition
3,O=C(O)/C(=C/c1ccccc1)c1ccccc1,16.48%
6,CCOC(=O)N1C/C(=C\c2ccccc2)C(=O)/C(=C/c2ccccc2)C1,20.83%

# (next part)

row,Compound,Inhibition
1,Cc1nc([C@H]2CC[C@H]3[C@@H]4CCC5=CC(=O)CC[C@]5(C)[C@H]4CC[C@]23C)cs1,23.23%
2,O=C(O)c1ccc2c(c1Nc1ccccc1)C(=O)c1ccccc1C2=O,16.49%
3,N#C/C(=C\c1cc(O)c(O)c(O)c1)C(N)=O,1.95%
4,CC1=CC(=O)CC(C)(C)C1(O)/C=C/C(C)=C/C(=O)O (configuration not stated),1.8%
5,NC(=O)Nc1n[nH]c(-c2ccccc2)n1,-18.28%
6,CCOC(=O)c1nc(O)c2c3c(sc2n1)CCCC3,24.68%
7,c1ccc(CSc2nnc3c4ccccc4c4ccccc4c3n2)cc1,1.63%
8,OC1(Cc2ccccc2)CCNCC1,9.85%
9,Cc1cccnc1NC(=O)c1csnn1,8.18%
10,CSc1nc(O)nnc1Sc1ccccc1,9.51%
11,CO/N=C1/C=C(C)C(=O)C(C)=C1C,15.59%
12,N=C(N)NC(=N)Nc1ccc(O)cc1,16.2%
13,Cc1nc(Br)c(Br)c(C)c1Br,20.73%
14,CC(C)c1cc(C(C)C)n2nc(N)nc2n1,3.42%
15,COc1ccc(Br)c2c1C(=O)CC2,18.13%
16,CNc1nc(SC)n(C)c(=O)c1N=O,23.63%
17,O=C(O)c1ccc(OCCOc2ccccc2)cc1,15.72%
18,CN(NC(=O)C(=O)NCc1ccco1)C(=O)NC1CCCCC1,-7.83%
19,CSc1cccc(NC(=O)OC2CCCCCCCCCCC2)c1,19.69%
20,Nc1ccc2c(c1)N=[N+]([O-])c1cc(N)ccc1C2,29.8%
21,CN1CCC=C(C(=O)N2c3ccccc3Sc3ccc(Cl)cc32)C1.O=C(O)CCC(=O)O,30.37%
22,O=C1c2ccccc2NC(c2cc(Cl)cc(Cl)c2O)N1CCc1ccccn1 (configuration not stated),21.27%
23,NC(=O)c1cc(Br)cc(C2CCCCC2)c1O,5.79%
24,CCOC(=O)CCC1(C(=O)OC)C(=O)CCCCC/C=C/1C(=O)OC (configuration not stated),-9.87%

row,Compound,Inhibition
1,CC(=O)Nc1cccc(NC(C)=O)n1,21.77%
2,O=C1c2ccccc2C(O)(c2ccccc2)N1c1ccncc1 (configuration not stated),12.76%
3,COc1ccc2nc(-c3ccc(Cl)cc3)cc(C(=O)O)c2c1,9.71%
4,Cc1cc(O)cc2c1[C@H]1CC[C@]3(C)C(=O)CC[C@H]3[C@@H]1C=C2,7.41%
5,CCCC1OC(c2cc3c(cc2Cl)OCO3)OCC1CC (configuration not stated),21.15%
6,N#Cc1c(N)nc(N)nc1Nc1ccc(Br)cc1,7.2%
7,S=C(Sc1ccc(Cl)cc1)Sc1ccc(Cl)cc1,18.41%
8,Cn1c2c(sc1=O)CCC2,11.4%
9,CC1=NN(c2ccccc2)C(=O)C1C(=S)SC1CC(=O)NC1=O (configuration not stated),-3.19%
10,CCOP(=O)(OCC)/C(C#N)=C/c1c[nH]c2ccccc12,22.11%
11,Nc1ccc(NC(=O)c2ccc(C(=O)Nc3ccc(N)cc3)cc2)cc1,17.35%
12,N#Cc1cnn(-c2cccc(Cl)c2)c1-n1cccc1,24.75%
13,COc1cc(CCC(=O)O)on1,13.92%
14,CC(=O)O.N=c1ccn2c(n1)OC1C(O)C(CO)OC12 (configuration not stated),17.35%
15,O=C(/C=C/c1cccnc1)/C=C/c1cccnc1,3.39%
16,Cn1cnc2ncnn2c1=S,-10.78%
17,COc1cc(NCc2ccccc2O)c2ncccc2c1,13.22%
18,CC(=O)OCCn1c2nc(=O)[nH]c(=O)c-2nc2cc(C)c(C)cc21,0.66%
19,CSc1nc2nc(C(O)c3ccccc3)nc-2c[nH]1 (configuration not stated),-7.72%
20,CCCc1cc(=O)oc2c3c(c4c(c12)OC(C)(C)C=C4)OC(C)[C@H](C)[C@@H]3O (some centres not stated),18.14%
21,O=C(Nc1ccc(C(=O)O)c(O)c1)c1ccccc1 [BENZOYLPAS],4.8%
22,Cc1nc2[nH]c(=O)n(O)c(=O)c2s1,8.63%
23,Cc1ccccc1OCC(O)CN1CCN(c2ccc(Cl)cc2)CC1 (configuration not stated),16%
24,Nc1nnc(S)n1-c1ccc(Cl)cc1,10.31%

row,Compound,Inhibition
1,COC(=O)Cc1[nH]c(O)nc1C(=O)OC,10.28%
2,CCCCC(=O)N1CCCC(C)C1 (configuration not stated),-0.54%
3,Nc1ncnc2c1cnn2C1CCCCC1,-15.65%
4,O=C(NC1(N2CCOCC2)CC1)c1ccc(Cl)cc1,-1.89%
5,CCOC(=O)C1C(=O)C(=O)N(C(C)C)C1C(=O)OCC (configuration not stated),-2.75%
6,COc1cc2c(=O)n3c4c(cccc4c2cc1OC)CC3,12.72%
7,COc1ccc(C(C)=O)cc1CO/N=C1\CSCc2ccccc21,16.05%
8,Oc1ccc(Nc2ccc3ccccc3c2)cc1,-17.28%
9,COc1cc(C(=O)C(=O)c2ccc(O)c(OC)c2)ccc1O,13.12%
10,COc1ccc(Cc2nnc(SC)n2-c2ccc(F)cc2)cc1OC,8.89%
11,CCOC(=O)C1CC(=O)c2cc(OC)c(OC)cc2C1 (configuration not stated),4.17%
12,CCOC(=O)Nc1c2ccccc2nc2ccccc12,16.61%
13,CS(=O)(=O)Oc1ccc(Br)c2cccnc12,19.99%
14,O=C(Nc1ccc2ccccc2c1)c1ccc(Cl)cc1Cl,10.38%
15,Cc1cc(/C=C2\SC(=S)NC2=O)cc(C)c1O,10.17%
16,CCC1(C(=O)OC)CCc2c(cc(OC)c3ccccc23)C1=O (configuration not stated),22.96%
17,CN1CN(C)C(c2ccncc2)=C1c1ccncc1,-2.44%
18,CC(=O)CC(=O)Nc1ccc2ccccc2c1,2.07%
19,O=C1COc2cccnc2N1,5.88%
20,Oc1cc(-c2nn[nH]n2)nc(O)n1,21.93%
21,COCC(=O)OC1CCn2c1nc1c2C(=O)C(C)=C(NC(C)=O)C1=O (configuration not stated),13.04%
22,CN1CCc2ccccc2C1Cc1ccccc1NC(=O)c1sc2ccccc2c1Cl (configuration not stated),-10.73%
23,NS(=O)(=O)c1ccc(NC2(C(=O)O)CCCC2)cc1,-14.85%
24,CCOC(=O)C(C#N)C(=N)C1C(=O)OC2CCCCC21 (configuration not stated),21.59%

row,Compound,Inhibition
1,CCCCOc1ccc(Nc2cc(Cl)ccc2C(=O)O)cn1,7.97%
2,N=C(N)Nc1ccc(NC(=N)N)cc1,17.78%
3,CCN(CC)CCNc1c(C)cc(CO)c(Cl)c1C.O=S(=O)(O)NC1CCCCC1,23.63%
4,O=c1cc(-c2cccnc2)oc2c1ccc1ccccc12,19.87%
5,Nc1ccc(Br)cc1Br,1.43%
6,CCOC(=O)CC1(C)NC(C(=O)O)C(C)(C)S1 (configuration not stated),-9.73%
7,CS(=O)(=O)Nc1nc2ccccc2[nH]1,-0.15%
8,Nc1ncnc2c1ncn2C1C=C(CO)C(O)C1O (configuration not stated),21.12%
9,S=C(Nc1ccccc1)Nc1nccs1,-7.41%
10,CC1=CC2=C(C=O)C(=O)[C@](C)(O)[C@@H](O)C2=CO1,3.32%
11,O=C(OCC1CCC=CO1)C1CCC=CO1 (configuration not stated),3.13%
12,Cc1cc(C)n(C(=N)NC(=O)c2ccccc2)n1,1.69%
13,NC(=O)/C(=C\c1ccncc1)c1cccc2ccccc12,18.99%
14,O=C1c2cccc(Sc3ccccc3)c2C(=O)c2c(Sc3ccccc3)cccc21,26.77%
15,CCCNC(=O)c1ccc(S(N)(=O)=O)cc1,10.97%
16,Cc1ccc(Cl)cc1NC(=O)N(C)CCO,-11.85%
17,O=C(COc1cc(Cl)c(Cl)cc1Cl)Nc1ccc([N+](=O)[O-])cc1Cl,19.21%
18,CSC(=N)NS(=O)(=O)c1ccc(NC(C)=O)cc1,22.54%
19,Clc1nc(Cl)nc(-c2cn(-c3ccccc3)c3ccccc23)n1,16.52%
20,c1ccc(-c2nc(-c3ccccn3)nc(-c3ccccn3)n2)nc1,11.58%
21,Cc1cccc(NC2=C(C#N)C(=O)NC3(CCCC3)S2)c1,-6.88%

# Seven compounds from above, arranged by length of the SMILES, smallest number first:
row,Compound,Inhibition
9,S=C(Nc1ccccc1)Nc1nccs1,-7.41%
11,O=C(OCC1CCC=CO1)C1CCC=CO1 (configuration not stated),3.13%
15,CCCNC(=O)c1ccc(S(N)(=O)=O)cc1,10.97%
8,Nc1ncnc2c1ncn2C1C=C(CO)C(O)C1O (configuration not stated),21.12%
18,CSC(=N)NS(=O)(=O)c1ccc(NC(C)=O)cc1,22.54%
13,NC(=O)/C(=C\c1ccncc1)c1cccc2ccccc12,18.99%
17,O=C(COc1cc(Cl)c(Cl)cc1Cl)Nc1ccc([N+](=O)[O-])cc1Cl,19.21%
